From PubChem BioAssay AID540276 (National Center for Advancing Translational Sciences (NCATS), 2011)
About 5,400 (1.8%) of roughly 300,000 compounds were called active. The inconclusive results got no clear call from the source; some entries with a clear call stand among them for comparison. The call rests on the fitted dose curve; tested in HEK293 cells. A potency beside an inconclusive call is a rough fit, not a confirmed value.

Assay: qHTS for inhibitors of binding or entry into cells for Marburg Virus
Settings: Marburg virus pseudotyped entry inhibition, cell reporter; series mostly up to 37.8 µM
Potency means the concentration at half of the fitted maximal effect.

| SMILES | Potency |
| --- | --- |
| COc1cc(C(=O)Nc2nc3c(s2)Cc2c(Br)ccc(OC)c2-3)cc(OC)c1OC | inactive |
| CN(/N=C/c1ccc(C(C)(C)C)cc1)C1=NCCN1 | inconclusive: 6.31 µM [activator, single point] |
| Cc1ccc(C)n1-c1ccc(C(=O)NC2CCN(Cc3ccccc3)CC2)cc1 | inconclusive: 2.51 µM [inhibitor, full curve, poor fit] |
| O=C(CSc1nnnn1C1CCCC1)Nc1ccccc1N1CCOCC1 | inactive |
| COc1cccc(C(=O)OCC(=O)Nc2cc(C)on2)c1OC | inconclusive: 35.5 µM [inhibitor, partial curve, poor fit] |
| Cc1ccc(CSCCNC(=O)c2ccc(N(C)S(=O)(=O)c3ccccc3)cc2)cc1 | inconclusive: 11.2 µM [inhibitor, partial curve] |
| CCOc1ccc(CCNC(=O)COC(=O)C2CC2)cc1OCC | inconclusive: 1 µM [activator, partial curve, poor fit] |
| CCc1ccc(Nc2nnc(SCC(=O)Nc3sccc3C(N)=O)s2)cc1 | inconclusive: 35.5 µM [inhibitor, single point] |
| COc1cc2c(C(=O)N3CCN(C)CC3)c(C)n(-c3ccccc3)c2cc1Br | inconclusive: 16.4 µM [inhibitor, single point] |
| Cc1cc(C)n2nc(SCC(=O)c3ccc[nH]3)nc2n1 | inactive |
| CCOc1ccc(-c2cc3nc(C4CCN(C(=O)OC(C)(C)C)CC4)c(C(=O)Nc4ccc(C)cc4Cl)cn3n2)cc1 | inconclusive: 1.78 µM [inhibitor, partial curve, poor fit] |
| CCOC(=O)c1cc(NC(=O)N2CCCc3ccccc32)c(C)nc1C | inconclusive: 2.82 µM [inhibitor, partial curve, poor fit] |
| Cc1ccc(SCc2cc(=O)[nH]c(SCC(=O)Nc3cc(Cl)ccc3Cl)n2)cc1 | inconclusive: 5.62 µM [inhibitor, single point] |
| Cc1cc(C)c2c(n1)nn1c(C)c(CCC(=O)NCc3ccccc3Cl)c(C)nc21 | inactive |
| CC(=NN1CC(=O)NC1=O)c1ccc([N+](=O)[O-])o1 | inconclusive: 35.5 µM [inhibitor, single point] |
| O=C(COc1coc(CN2CCc3ccccc32)cc1=O)Nc1ccc([N+](=O)[O-])cc1 | inactive |
| CN(CC(=O)N1CCc2ccccc21)S(=O)(=O)c1ccc(Cl)cc1 | inactive |
| O=C(N/N=C/c1ccco1)c1cc(-c2ccccc2)n[nH]1 | inconclusive: 31.6 µM [activator, single point] |
| O=c1cc(C(F)(F)F)c2sc(N3CCCCC3)nc2[nH]1 | inactive |
| N#C/C(=C\c1ccc(Cl)s1)C(=O)N1CCN(c2ccccc2)CC1 | inconclusive: 3.16 µM [activator, full curve, poor fit] |
| Cc1nc(NC(=S)NC(=O)c2cccs2)ccc1Br | inconclusive: 0.251 µM [activator, full curve, poor fit] |
| O=C(NC1(C(F)(F)F)Oc2ccccc2O1)N1CCC2(CC1)OCCO2 | inconclusive: 10.3 µM [inhibitor, partial curve, poor fit] |

| SMILES | Potency |
| --- | --- |
| COc1ccc(Cc2nnc(NC(=O)c3ccc(OC)c(OC)c3)s2)cc1 | inconclusive: 5.62 µM [inhibitor, full curve] |
| CCOc1ccc(/C=N/NC(=O)c2c(-c3ccccc3)noc2C)cc1 | inconclusive: 0.112 µM [inhibitor, full curve, poor fit] |
| COc1ccc(-c2cc3nc[nH]c(=O)c3s2)cc1 | inactive |
| CCCCCC1CC(CC/C(C)=N/NC(N)=O)C(=O)O1 (stereo unspecified) | inconclusive: 3.55 µM [inhibitor, partial curve, poor fit] |
| COc1ccccc1-c1ccc(SCc2ccc([N+](=O)[O-])cc2)nn1 | active: 10 µM |
| CCN(CC)S(=O)(=O)N1CCC(C(=O)NC2CCCC2)CC1 | inactive |
| Cn1c(Cn2cnc([N+](=O)[O-])n2)nnc1SCC(=O)Nc1ccccc1 | inactive |
| Nc1nonc1-n1nnc(C(=O)N/N=C/c2cc(Br)ccc2O)c1CSC1=NCCS1 | inconclusive: 2 µM [inhibitor, partial curve, poor fit] |
| CCOC(=O)C(NC(=O)OC(C)C)(Nc1nccs1)C(F)(F)F (stereo unspecified) | inconclusive: 0.891 µM [inhibitor, full curve, poor fit] |
| COCCNC(=O)/C(C#N)=C/c1ccc(C)o1 | inconclusive: 14.1 µM [activator, single point] |
| CN(C(=O)CCS(=O)(=O)c1ccc2c(c1)oc(=O)n2C)C1CCCCC1 | inactive |
| Cc1n[nH]c(=S)n1/N=C/c1cccc(OCc2ccccc2)c1 | inconclusive: 3.55 µM [activator, single point] |
| CCOc1ccc(N(Cc2nnc3n2CCCCC3)C(=O)Nc2cccc(C)c2)cc1 | inconclusive: 6.31 µM [activator, partial curve, poor fit] |
| O=C(c1ccccc1Cl)N1N=C(c2ccc(Br)cc2)CC1c1nc2ccccc2[nH]1 (stereo unspecified) | inconclusive: 20.6 µM [inhibitor, partial curve, poor fit] |
| COc1ccc(-c2cc(C(=O)Nc3ccc(C(N)=O)cc3)c3ccccc3n2)cc1 | inconclusive: 5.01 µM [inhibitor, single point] |
| CC(=O)N1CCN(Cc2nc3cc(NC(=O)NC4CCCCC4)ccc3n2C)CC1 | inconclusive: 0.794 µM [activator, partial curve, poor fit] |
| CC(=O)N1C(c2ccccc2)CC(=O)OC1c1ccc2c(c1)OCO2 (stereo unspecified) | inactive |
| Cc1ccc(C(=O)NC(=S)Nc2ccc(N3CCOCC3)cc2)cc1C | inconclusive: 3.55 µM [inhibitor, single point] |
| O=C(CSc1nnc(Cc2csc(Nc3cccc(Cl)c3)n2)o1)N1CCc2ccccc21 | inconclusive: 7.94 µM [inhibitor, partial curve, poor fit] |
| O=P(O)(O)CN1CCNCCN(CP(=O)(O)O)CCNCC1 | inconclusive: 3.55 µM [inhibitor, partial curve, poor fit] |
| O=C(COC(=O)CNC(=O)c1ccccc1)Nc1ccc(F)c([N+](=O)[O-])c1 | inconclusive: 4.47 µM [inhibitor, full curve, poor fit] |
| O=C(Cc1cccs1)NCCN1CCOCC1 | inactive |

| SMILES | Potency |
| --- | --- |
| COc1ccccc1N/N=C/c1c(CO)cnc(C)c1O | inconclusive: 23.1 µM [inhibitor, partial curve, poor fit] |
| O=C(/C=C/c1ccccc1)c1ccc(NC2=NCCCS2)cc1 | inconclusive: 35.5 µM [inhibitor, partial curve, poor fit] |
| Cc1ccc(OCc2nc(-c3ccc(C(=O)N4CCN(c5cc(Cl)ccc5C)CC4)cc3)oc2C)cc1 | inconclusive: 35.5 µM [activator, single point] |
| COc1ccc(Nc2nnc(SCC(=O)/C=C3/N(C)c4ccccc4C3(C)C)s2)cc1 | inconclusive: 3.98 µM [inhibitor, partial curve, poor fit] |
| CC(=O)C1C(N2CC2)CC2C3CC=C4CC(O)CCC4(C)C3CCC21C (stereo unspecified) | inconclusive: 14.1 µM [inhibitor, single point] |
| Cc1cccc(NC(=S)NC2CC3CCCC(C2)N3CC(C)C)c1C (stereo unspecified) | inconclusive: 8.2 µM [inhibitor, full curve, poor fit] |
| O=C(COc1ccccc1)c1cn(Cc2ccccc2)c2ccccc12 | inconclusive: 1.58 µM [activator, full curve, poor fit] |
| CC(C)n1c(SCC(=O)Nc2ccccc2N2CCCCC2)nc2c1c(=O)n(C)c(=O)n2C | inconclusive: 18.3 µM [inhibitor, single point] |
| O=Nc1ccc(NOC(=O)c2ccc(Br)cc2)cc1 | inactive |
| CC(=O)Nc1cc2c(cc1Cl)-c1ccc(F)cc1C2O (stereo unspecified) | inconclusive: 3.55 µM [activator, partial curve, poor fit] |
| Cc1ccc(C)c(OCCC(=O)NCCc2ccc(S(N)(=O)=O)cc2)c1 | inconclusive: 3.98 µM [activator, partial curve, poor fit] |
| O=c1c2cn[nH]c2[nH]c(=S)n1-c1cccc2ccccc12 | inconclusive: 35.5 µM [activator, single point] |
| O=C(NNC(=S)Nc1ccc(F)cc1)C1[C@H]2CCCC[C@@H]12 (stereo partly specified) | inconclusive: 11.2 µM [activator, partial curve] |
| CNCCCOc1ccc(C)cc1OC | inconclusive: 14.1 µM [inhibitor, single point] |
| COC(=O)C(C)Oc1ccc2cc(-c3ccccc3)c(=O)oc2c1 (stereo unspecified) | inconclusive: 11.2 µM [activator, partial curve, poor fit] |
| CCOC(=O)c1ccc(CC2S/C(=C(\C#N)C(C)=O)NC2=O)cc1 (stereo unspecified) | inconclusive: 25.1 µM [inhibitor, single point] |
| O=C(/C=C/c1cccc([N+](=O)[O-])c1)NC(=S)Nc1cccc(NC(=O)c2ccccc2Cl)c1 | inconclusive: 11.2 µM [inhibitor, partial curve, poor fit] |
| Cc1ccc(-c2noc(C3CCCCC3)n2)cc1 | inactive |
| CCN(CC)CCN1C(=O)C(O)=C(C(=O)c2ccco2)C1c1ccccn1 (stereo unspecified) | inactive |
| O=c1cc(-c2ccccc2)c2cc3c(cc2[nH]1)OCCO3 | inconclusive: 12.6 µM [inhibitor, partial curve, poor fit] |
| CCCCC(=O)NC(=S)Nc1ccc(NC(=O)C(C)C)c(OC)c1 | inactive |
| O=C(Nc1ccon1)c1cc2c(s1)CCCC2 | inconclusive: 14.6 µM [inhibitor, single point] |

Entries shown so far that contain a cyano group, in the order listed:

| SMILES | Potency |
| --- | --- |
| N#C/C(=C\c1ccc(Cl)s1)C(=O)N1CCN(c2ccccc2)CC1 | inconclusive: 3.16 µM [activator, full curve, poor fit] |
| COCCNC(=O)/C(C#N)=C/c1ccc(C)o1 | inconclusive: 14.1 µM [activator, single point] |
| CCOC(=O)c1ccc(CC2S/C(=C(\C#N)C(C)=O)NC2=O)cc1 (stereo unspecified) | inconclusive: 25.1 µM [inhibitor, single point] |
